Results deposited as PubChem BioAssay AID1259261 (Sanger Institute, 2017).

- Aim: 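Kinase knock-downs that kill colorectal cancer cells or boost targeted drugs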 (primary screen)
- System: HCC2998 human colorectal cancer cells
- Reagent: siRNA pool against human genes
- Treatment: anchor drugs BYL719 1 µM, cetuximab 5 µg/ml or trametinib 10 nM, each compared with DMSO vehicle
- Measured: 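Cell viability relative to non-targeting siRNA, averaged over replicates, with robust z-score for siRNA alone and synergy scores with each anchor drug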
- Scale: viability z-score, knock-down alone: higher = more viable cells than controls; viability fraction, knock-down alone: higher = more viable cells; synergy score with BYL719: higher = stronger combined killing with BYL719; synergy score with trametinib: higher = stronger combined killing with trametinib; synergy score with cetuximab: higher = stronger combined killing with cetuximab
- Hit rule: 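Essential when the siRNA-alone viability robust z-score is below -3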
- Calls: active = essential; inactive = no change
In all, the deposit lists 794 reagents; this is a random part of them. 10 of them (1.3%) were called active. 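Calls reflect knock-down alone without drug; synergy scores with BYL719, cetuximab or trametinib do not affect calls.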 No viability above 1 is reported: the scale is capped. Not given: the amount of reagent, the time to read-out.

no.	gene	viability z-score, knock-down alone	viability fraction, knock-down alone	synergy score with BYL719	synergy score with trametinib	synergy score with cetuximab	Outcome
1	MAP4K5	0.113	0.863	0.0332	0.0459	0.0435	inactive
2	CAMKK1	0.759	0.944	-0.125	0.0115	-0.0218	inactive
3	POMK	1.12	0.99	-0.118	-0.0511	-0.0529	inactive
4	CSNK1A1	1.07	0.982	0.0128	0.129	-0.0352	inactive
5	LIMK2	0.454	0.906	0.0123	0.126	-0.0393	inactive
6	YES1	1.21	1	-0.104	0.0349	-0.0432	inactive
7	CDK2	0.567	0.92	-0.0305	0.0364	-0.0641	inactive
8	TP53RK	1.13	0.99	0.00367	0.112	0.0194	inactive
9	STK16	0.607	0.925	0.0352	0.184	0.00555	inactive
10	PAK3	-0.924	0.733	-0.0851	-0.00428	-0.09	inactive
11	PDGFRL	-0.762	0.753	-0.134	-0.103	-0.0612	inactive
12	PIK3CA	0.324	0.889	-0.0653	-0.000638	-0.0952	inactive
13	TPD52L3	1.13	0.991	-0.0762	-0.0264	0.0383	inactive
14	GRK3	1.21	1	-0.0377	0.0694	-0.0432	inactive
15	MST1R	1.13	0.99	-0.043	-0.0537	0.0169	inactive
16	TGFBR1	-0.227	0.82	-0.0994	-0.00477	-0.0416	inactive
17	CDC7	-0.0189	0.846	0.0874	0.0886	-0.0328	inactive
18	AMHR2	0.266	0.882	-0.131	0.0815	0.0532	inactive
19	PIK3R3	1.01	0.976	-0.029	-0.015	-0.000308	inactive
20	PIK3CD	0.31	0.888	-0.131	-0.0247	0.103	inactive
21	PRKCZ	-0.697	0.761	0.0496	0.12	0.0268	inactive
22	BCR	-0.236	0.819	-0.0532	0.146	-0.0667	inactive
23	CAMK4	1.21	1	0.0897	0.232	-0.0432	inactive
24	DLG3	-1.35	0.68	-0.0194	-0.0047	-0.00403	inactive
25	PI4KB	-0.148	0.83	-0.199	-0.0118	-0.165	inactive
26	DAPK1	-0.866	0.74	-0.0818	0.00702	-0.104	inactive
27	CRIM1	-1.36	0.678	0.0133	0.152	0.0281	inactive
28	CDKL4	-0.652	0.767	0.0965	0.0844	0.136	inactive
29	STK33	0.332	0.891	0.0518	0.0795	0.00411	inactive
30	NEK9	0.461	0.907	0.0209	0.115	-0.0351	inactive
31	PSKH1	1.01	0.975	0.0901	0.122	0.0515	inactive
32	PRPS1	-0.618	0.771	-0.0585	0.0197	-0.14	inactive
33	MERTK	-0.911	0.735	-0.124	-0.00238	0.0288	inactive
34	KSR2	-1.03	0.72	-0.0697	0.0699	-0.0646	inactive
35	ITK	1.08	0.984	0.00538	0.0041	-0.027	inactive
36	ROCK1	1.19	0.998	-0.000858	0.0556	-0.0456	inactive
37	MAPK13	1.1	0.987	-0.121	0.021	0.0122	inactive
38	CSNK1E	1.21	1	-0.0943	-0.0404	-0.0432	inactive
39	ACVRL1	1.03	0.978	-0.0317	-0.0947	0.0642	inactive
40	DTYMK	0.319	0.889	0.0166	0.0672	-0.0579	inactive
41	CSNK2B	-1.25	0.692	-0.189	-0.143	-0.209	inactive
42	RIPK3	0.147	0.867	-0.115	0.0909	0.0369	inactive
43	RIOK1	-0.132	0.832	-0.131	0.0692	-0.0849	inactive
44	DGUOK	-1.64	0.643	-0.0532	-0.00572	0.00882	inactive
45	PFKFB1	-1.35	0.68	-0.0482	0.0159	-0.0558	inactive
46	MAP3K1	1.21	1	-0.0978	0.0902	-0.0432	inactive
47	BLK	1.21	1	-0.109	0.00463	0.0181	inactive
48	MAPK10	0.268	0.882	-0.146	-0.0438	-0.0722	inactive
49	PIK3C2B	1.04	0.979	0.0636	-0.0371	-0.0504	inactive
50	STK3	-0.578	0.776	-0.241	0.0528	-0.115	inactive
51	CSNK1D	-0.565	0.778	-0.082	-0.000431	-0.047	inactive
52	PCK1	0.377	0.896	0.00889	-0.00941	-0.00707	inactive
53	MAPK6	0.671	0.933	-0.047	-0.0439	-0.0588	inactive
54	PDK2	0.0428	0.854	0.0271	0.13	0.0559	inactive
55	CTCF	-0.487	0.788	-0.0408	-0.0488	-0.216	inactive
56	PIK3R1	0.0203	0.851	-0.0968	0.0111	-0.0348	inactive
57	PTK7	-1.27	0.69	0.0416	0.123	0.0818	inactive
58	CDK13	0.841	0.954	-0.0432	-0.0228	-0.0869	inactive
59	IPMK	0.666	0.932	-0.0979	-0.0536	-0.0287	inactive
60	PXK	0.0428	0.854	0.00465	0.0505	-0.018	inactive
61	POLR2B	-2.94	0.48	-0.0438	-0.071	-0.0366	inactive
62	MAPK14	-0.114	0.835	-0.0262	-0.147	0.00924	inactive
63	MYO3B	-1.69	0.637	-0.0242	-0.0205	-0.00126	inactive

Sorted by “synergy score with BYL719” (highest first): 10 of the entries above.
gene	viability z-score, knock-down alone	viability fraction, knock-down alone	synergy score with BYL719	synergy score with trametinib	synergy score with cetuximab	Outcome
DTYMK	0.319	0.889	0.0166	0.0672	-0.0579	inactive
ACVRL1	1.03	0.978	-0.0317	-0.0947	0.0642	inactive
PFKFB1	-1.35	0.68	-0.0482	0.0159	-0.0558	inactive
DGUOK	-1.64	0.643	-0.0532	-0.00572	0.00882	inactive
CSNK1E	1.21	1	-0.0943	-0.0404	-0.0432	inactive
MAP3K1	1.21	1	-0.0978	0.0902	-0.0432	inactive
BLK	1.21	1	-0.109	0.00463	0.0181	inactive
RIPK3	0.147	0.867	-0.115	0.0909	0.0369	inactive
RIOK1	-0.132	0.832	-0.131	0.0692	-0.0849	inactive
CSNK2B	-1.25	0.692	-0.189	-0.143	-0.209	inactive
